The list shows a part of the results.
Legend:
Test in all cases: log2 fold change, soluble protein after heating vs DMSO (PISA); higher = thermal stabilisation; K562 lysate, 10 uM; active = over 0.2 and 3.5 SD of the protein, either way, in both replicates (recomputed)
[1] = compound: C1=CC=C(C=C1)[C@H](COC2=CC3=C(C=C2)NC(=O)N3)NC(=O)C4=CC=CN(C4=O)CC5=CC(=C(C=C5)F)F
In short: (§1)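 Dounce homogenisation of K562 pellets in PBS pH 7.4 with 1 mM MgCl2 produced a crude extract, used at 1 mg/mL protein. Exposure to 10 μM compound lasted 30 min, and aliquots were then heated for 3 min across 48°C-58°C, pooled and brought to 0.5% NP-40 at 4°C. The supernatant after 21,000xg for 90 min was quantified by TMTpro 16plex LC-MS/MS with channel sums equalised. Duplicate values are given as log-two fold change in thermal stability relative to solvent controls.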

The chains behind the UniProt entries cited, without tags or fusion partners. Where a name states a change or a piece, a line headed by the entry shows the natural chain unless it says otherwise.
UniProt Q8IY81: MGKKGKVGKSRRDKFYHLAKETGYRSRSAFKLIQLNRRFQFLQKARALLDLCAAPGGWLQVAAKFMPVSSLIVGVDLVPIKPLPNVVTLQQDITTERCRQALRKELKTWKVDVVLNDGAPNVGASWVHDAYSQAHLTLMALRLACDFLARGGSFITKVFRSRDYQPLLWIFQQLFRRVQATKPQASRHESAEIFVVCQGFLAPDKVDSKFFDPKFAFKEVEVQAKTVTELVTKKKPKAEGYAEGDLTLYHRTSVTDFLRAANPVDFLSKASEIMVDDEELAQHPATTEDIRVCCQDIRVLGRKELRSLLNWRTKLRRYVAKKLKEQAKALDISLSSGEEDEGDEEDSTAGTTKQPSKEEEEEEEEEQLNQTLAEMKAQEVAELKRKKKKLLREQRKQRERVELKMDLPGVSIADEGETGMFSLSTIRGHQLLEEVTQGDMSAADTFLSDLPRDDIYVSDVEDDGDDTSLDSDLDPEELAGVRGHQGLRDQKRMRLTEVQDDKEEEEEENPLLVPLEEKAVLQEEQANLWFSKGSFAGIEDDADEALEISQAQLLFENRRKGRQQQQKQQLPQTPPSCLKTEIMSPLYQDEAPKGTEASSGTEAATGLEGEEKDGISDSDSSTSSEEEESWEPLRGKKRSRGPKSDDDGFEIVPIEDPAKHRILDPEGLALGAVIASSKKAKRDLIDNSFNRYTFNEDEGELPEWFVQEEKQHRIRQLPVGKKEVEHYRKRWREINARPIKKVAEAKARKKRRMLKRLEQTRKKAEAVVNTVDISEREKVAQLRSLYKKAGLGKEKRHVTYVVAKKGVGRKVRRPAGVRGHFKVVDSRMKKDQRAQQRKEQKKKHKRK
UniProt Q8TEQ6: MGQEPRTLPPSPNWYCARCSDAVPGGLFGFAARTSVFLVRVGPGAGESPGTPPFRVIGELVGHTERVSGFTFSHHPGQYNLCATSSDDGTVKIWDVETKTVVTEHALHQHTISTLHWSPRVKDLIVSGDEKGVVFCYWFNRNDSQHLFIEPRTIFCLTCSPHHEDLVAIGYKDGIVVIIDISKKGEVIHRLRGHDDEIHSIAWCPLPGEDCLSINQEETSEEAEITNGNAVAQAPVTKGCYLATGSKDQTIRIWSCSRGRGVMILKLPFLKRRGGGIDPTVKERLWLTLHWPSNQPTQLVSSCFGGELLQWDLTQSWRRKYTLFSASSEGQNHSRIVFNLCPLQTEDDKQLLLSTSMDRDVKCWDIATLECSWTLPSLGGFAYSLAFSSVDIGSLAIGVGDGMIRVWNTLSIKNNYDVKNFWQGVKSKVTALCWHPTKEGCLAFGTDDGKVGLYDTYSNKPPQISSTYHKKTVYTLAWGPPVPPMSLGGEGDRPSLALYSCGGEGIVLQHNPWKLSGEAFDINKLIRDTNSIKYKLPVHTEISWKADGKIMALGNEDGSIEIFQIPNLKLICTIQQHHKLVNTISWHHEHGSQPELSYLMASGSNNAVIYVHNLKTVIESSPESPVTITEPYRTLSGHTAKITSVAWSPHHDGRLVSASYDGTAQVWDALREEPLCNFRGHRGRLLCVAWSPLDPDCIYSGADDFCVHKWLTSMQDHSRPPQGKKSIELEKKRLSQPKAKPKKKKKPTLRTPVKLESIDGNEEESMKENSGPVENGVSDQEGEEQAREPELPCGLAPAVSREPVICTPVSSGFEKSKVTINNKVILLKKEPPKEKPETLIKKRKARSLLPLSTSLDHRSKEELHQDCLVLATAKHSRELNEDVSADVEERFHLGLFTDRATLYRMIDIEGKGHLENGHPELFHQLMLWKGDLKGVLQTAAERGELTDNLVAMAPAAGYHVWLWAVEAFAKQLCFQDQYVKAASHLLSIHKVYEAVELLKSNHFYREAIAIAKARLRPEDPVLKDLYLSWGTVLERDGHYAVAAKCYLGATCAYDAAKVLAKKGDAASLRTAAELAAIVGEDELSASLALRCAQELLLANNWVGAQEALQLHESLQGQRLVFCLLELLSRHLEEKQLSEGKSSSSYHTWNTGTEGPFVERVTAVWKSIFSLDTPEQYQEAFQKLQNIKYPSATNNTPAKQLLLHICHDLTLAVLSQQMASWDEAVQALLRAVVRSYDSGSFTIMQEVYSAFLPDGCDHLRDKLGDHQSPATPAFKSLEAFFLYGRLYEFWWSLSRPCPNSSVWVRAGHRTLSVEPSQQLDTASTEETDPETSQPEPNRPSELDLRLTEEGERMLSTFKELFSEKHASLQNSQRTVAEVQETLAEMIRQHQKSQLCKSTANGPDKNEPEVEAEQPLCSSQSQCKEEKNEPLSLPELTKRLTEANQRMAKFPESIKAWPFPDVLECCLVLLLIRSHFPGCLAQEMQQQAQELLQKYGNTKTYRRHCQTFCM
UniProt Q13283, whole entry, looked up: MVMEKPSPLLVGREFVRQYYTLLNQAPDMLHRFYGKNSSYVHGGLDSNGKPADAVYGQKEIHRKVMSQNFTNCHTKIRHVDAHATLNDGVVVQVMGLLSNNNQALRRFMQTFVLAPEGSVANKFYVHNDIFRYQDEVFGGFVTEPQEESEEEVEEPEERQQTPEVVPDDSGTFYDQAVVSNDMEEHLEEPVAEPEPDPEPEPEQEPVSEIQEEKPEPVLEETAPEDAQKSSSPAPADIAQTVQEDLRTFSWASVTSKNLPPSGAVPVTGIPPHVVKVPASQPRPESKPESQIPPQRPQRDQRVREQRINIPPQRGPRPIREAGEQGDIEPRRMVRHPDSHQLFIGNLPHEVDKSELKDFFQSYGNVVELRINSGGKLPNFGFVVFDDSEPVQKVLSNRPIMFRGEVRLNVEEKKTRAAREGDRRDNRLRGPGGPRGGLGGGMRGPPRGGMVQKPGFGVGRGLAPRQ
UniProt P04062: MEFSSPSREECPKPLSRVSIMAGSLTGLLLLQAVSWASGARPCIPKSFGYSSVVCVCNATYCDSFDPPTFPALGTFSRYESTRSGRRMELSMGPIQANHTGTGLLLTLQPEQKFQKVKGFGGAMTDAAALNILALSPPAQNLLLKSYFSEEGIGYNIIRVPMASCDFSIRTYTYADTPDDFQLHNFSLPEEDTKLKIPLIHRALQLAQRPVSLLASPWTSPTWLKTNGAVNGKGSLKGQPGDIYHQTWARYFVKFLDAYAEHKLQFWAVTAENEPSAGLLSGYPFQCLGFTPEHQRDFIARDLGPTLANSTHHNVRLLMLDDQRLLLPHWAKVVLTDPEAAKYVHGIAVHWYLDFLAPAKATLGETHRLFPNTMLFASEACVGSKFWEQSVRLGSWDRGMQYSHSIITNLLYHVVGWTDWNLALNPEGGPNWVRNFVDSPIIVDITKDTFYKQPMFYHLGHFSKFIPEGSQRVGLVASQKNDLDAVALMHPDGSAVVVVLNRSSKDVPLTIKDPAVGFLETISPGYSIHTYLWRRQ
UniProt P35637: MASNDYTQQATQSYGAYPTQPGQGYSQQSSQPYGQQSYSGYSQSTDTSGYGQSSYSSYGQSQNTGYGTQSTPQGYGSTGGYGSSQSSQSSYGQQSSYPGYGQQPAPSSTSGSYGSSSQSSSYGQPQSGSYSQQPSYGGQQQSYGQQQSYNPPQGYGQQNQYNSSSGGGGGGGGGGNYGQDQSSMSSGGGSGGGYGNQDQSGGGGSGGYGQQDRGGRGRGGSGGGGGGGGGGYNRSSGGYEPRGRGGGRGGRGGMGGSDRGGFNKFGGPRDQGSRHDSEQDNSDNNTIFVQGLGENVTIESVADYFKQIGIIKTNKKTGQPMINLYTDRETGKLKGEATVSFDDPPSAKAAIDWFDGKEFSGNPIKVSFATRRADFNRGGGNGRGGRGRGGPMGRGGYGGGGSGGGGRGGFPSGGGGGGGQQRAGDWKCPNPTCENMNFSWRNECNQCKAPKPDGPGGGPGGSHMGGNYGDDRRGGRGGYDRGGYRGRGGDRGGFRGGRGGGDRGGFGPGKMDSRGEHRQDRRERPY
UniProt P85037: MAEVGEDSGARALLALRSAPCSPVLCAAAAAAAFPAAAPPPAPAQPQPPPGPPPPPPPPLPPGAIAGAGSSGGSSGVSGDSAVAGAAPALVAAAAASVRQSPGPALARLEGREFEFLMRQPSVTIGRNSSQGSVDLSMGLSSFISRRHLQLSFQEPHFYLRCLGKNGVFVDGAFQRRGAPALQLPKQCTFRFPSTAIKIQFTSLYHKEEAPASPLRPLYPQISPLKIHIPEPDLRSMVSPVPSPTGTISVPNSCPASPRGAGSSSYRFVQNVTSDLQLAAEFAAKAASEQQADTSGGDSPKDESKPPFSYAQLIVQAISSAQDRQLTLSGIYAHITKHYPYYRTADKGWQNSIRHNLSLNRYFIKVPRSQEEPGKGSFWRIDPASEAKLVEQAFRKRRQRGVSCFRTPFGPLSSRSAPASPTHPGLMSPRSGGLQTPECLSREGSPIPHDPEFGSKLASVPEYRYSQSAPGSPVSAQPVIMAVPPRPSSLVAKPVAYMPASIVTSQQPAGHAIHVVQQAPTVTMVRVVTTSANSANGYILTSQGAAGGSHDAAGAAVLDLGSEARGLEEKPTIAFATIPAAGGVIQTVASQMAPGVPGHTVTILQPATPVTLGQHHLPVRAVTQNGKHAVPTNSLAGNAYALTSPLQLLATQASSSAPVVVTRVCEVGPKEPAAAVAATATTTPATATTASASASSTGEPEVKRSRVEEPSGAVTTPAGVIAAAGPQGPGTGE
UniProt Q7L5D6: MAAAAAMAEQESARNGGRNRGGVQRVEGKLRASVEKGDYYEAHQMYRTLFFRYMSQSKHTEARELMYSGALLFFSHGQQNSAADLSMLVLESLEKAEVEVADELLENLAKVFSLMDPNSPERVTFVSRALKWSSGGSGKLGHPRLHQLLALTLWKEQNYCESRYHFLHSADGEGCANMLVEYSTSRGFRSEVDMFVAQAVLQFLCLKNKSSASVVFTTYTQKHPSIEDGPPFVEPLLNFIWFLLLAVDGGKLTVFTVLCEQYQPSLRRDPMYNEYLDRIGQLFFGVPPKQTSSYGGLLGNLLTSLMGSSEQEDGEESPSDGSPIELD
UniProt Q96C23: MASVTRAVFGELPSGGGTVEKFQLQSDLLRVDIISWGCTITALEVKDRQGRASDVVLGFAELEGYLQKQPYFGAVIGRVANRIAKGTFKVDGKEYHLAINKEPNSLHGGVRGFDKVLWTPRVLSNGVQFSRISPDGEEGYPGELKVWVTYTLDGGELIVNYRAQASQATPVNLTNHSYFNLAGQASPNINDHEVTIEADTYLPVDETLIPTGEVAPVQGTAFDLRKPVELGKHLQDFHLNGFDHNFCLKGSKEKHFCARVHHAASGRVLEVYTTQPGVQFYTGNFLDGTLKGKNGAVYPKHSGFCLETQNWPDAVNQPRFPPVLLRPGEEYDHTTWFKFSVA
UniProt Q06546: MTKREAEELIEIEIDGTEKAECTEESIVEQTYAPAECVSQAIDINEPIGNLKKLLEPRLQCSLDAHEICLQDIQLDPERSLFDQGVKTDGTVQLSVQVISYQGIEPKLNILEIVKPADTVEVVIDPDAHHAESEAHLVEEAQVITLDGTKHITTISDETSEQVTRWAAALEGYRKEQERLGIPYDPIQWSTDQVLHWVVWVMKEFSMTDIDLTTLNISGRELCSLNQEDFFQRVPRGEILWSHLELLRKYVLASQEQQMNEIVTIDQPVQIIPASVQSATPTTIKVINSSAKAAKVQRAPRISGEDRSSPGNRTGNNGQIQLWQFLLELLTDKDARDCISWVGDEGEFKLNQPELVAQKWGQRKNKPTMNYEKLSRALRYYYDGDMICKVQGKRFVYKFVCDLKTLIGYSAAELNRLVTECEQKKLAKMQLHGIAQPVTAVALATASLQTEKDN
UniProt Q13069: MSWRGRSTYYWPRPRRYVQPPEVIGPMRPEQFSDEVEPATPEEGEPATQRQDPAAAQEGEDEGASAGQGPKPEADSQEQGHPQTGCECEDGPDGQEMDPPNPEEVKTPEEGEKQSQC
UniProt O43524: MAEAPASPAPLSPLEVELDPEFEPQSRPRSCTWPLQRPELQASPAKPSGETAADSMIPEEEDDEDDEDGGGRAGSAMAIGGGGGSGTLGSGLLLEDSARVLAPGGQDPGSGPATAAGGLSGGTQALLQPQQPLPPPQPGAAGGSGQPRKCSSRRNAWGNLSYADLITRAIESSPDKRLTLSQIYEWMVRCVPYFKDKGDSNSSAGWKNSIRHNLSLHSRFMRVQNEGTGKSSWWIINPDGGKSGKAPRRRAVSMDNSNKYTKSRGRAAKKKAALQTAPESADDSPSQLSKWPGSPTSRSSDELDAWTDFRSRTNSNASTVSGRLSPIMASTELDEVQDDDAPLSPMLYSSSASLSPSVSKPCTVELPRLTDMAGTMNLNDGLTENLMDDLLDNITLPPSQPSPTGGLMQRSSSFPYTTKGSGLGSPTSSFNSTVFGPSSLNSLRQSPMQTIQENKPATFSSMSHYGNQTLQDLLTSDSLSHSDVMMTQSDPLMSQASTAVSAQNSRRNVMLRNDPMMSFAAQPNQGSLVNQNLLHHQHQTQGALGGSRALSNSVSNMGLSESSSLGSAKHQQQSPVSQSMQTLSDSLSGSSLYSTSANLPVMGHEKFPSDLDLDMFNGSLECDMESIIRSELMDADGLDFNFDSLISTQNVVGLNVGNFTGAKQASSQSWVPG

[2] = compound: CC1=C(SC2=C1C(=N[C@H](C3=NN=C(N32)C)CC(=O)N)C4=CC=C(C=C4)Cl)C
In short: as §1

[3] = compound: CC1=C2C(=CC=C1)N=C(N(C2=O)C3=CC=CC=C3C)CN4C=NC5=C(N=CN=C54)N
In short: as §1

[4] = compound: Cc1sc2c(c1C)C(c1ccc(Cl)cc1)=N[C@@H](CC(=O)OC(C)(C)C)c1nnc(C)n1-2
In short: as §1

[5] = compound: c1ccc([C@@H]2C[C@H]2NC2CCNCC2)cc1
In short: as §1

Measured: log2 fold change

FRA10AC1 (UniProt Q70Z53)
inactive: [1] 0.033 | [2] 0.009 | [3] 0.008 | [4] -0.012 | [5] 0.061

GALNT3 (UniProt Q14435)
inactive: [1] 0.07 | [2] -0.044

GFOD2 (UniProt Q3B7J2)
inactive: [1] 0.081 | [2] 0.022 | [3] 0.06 | [4] -0.168 | [5] 0.002

FTSJ3 (UniProt Q8IY81)
inactive: [1] 0.022 | [2] -0.051 | [3] -0.007 | [4] -0.003 | [5] 0.083

GEMIN5 (UniProt Q8TEQ6)
inactive: [1] -0.015 | [2] 0.025 | [3] 0.016 | [4] -0.002 | [5] 0.036

GCLC (UniProt P48506)
inactive: [1] 0.059 | [2] 0.006 | [3] 0.04 | [4] -0.037 | [5] -0.006

FURIN (UniProt P09958)
inactive: [1] 0.017 | [2] 0.017 | [3] 0.046 | [4] 0.017 | [5] 0.035

GANAB isoform 2 (UniProt Q14697)
inactive: [1] 0.008 | [2] 0 | [3] 0.01 | [4] 0.008 | [5] 0.018

GBF1 (UniProt Q92538)
inactive: [1] -0.044 | [2] 0 | [3] 0.005 | [4] 0.016 | [5] 0.011

G3BP1 (UniProt Q13283)
inactive: [1] 0.006 | [2] -0.007 | [3] -0.006 | [4] 0.045 | [5] -0.045

GALNT10 (UniProt Q86SR1)
inactive: [1] 0.119 | [2] 0.007 | [3] -0.204 | [4] -0.112

FUCA1 (UniProt P04066)
inactive: [1] 0.032 | [2] 0.018 | [3] 0.021 | [4] -0.038 | [5] -0.051

GARS1 (UniProt H7C443)
inactive: [1] -0.038 | [2] 0.113

GART (UniProt P22102)
inactive: [1] -0.04 | [2] 0.047 | [3] 0.011 | [4] 0.057 | [5] 0.042

GALK1 isoform 2 (UniProt P51570)
inactive: [1] 0.014 | [2] 0.027 | [3] 0.035 | [4] 0.006 | [5] 0.073

FYTTD1 (UniProt Q96QD9)
inactive: [1] 0.142 | [2] -0.133 | [3] 0.123 | [4] 0.092

FYB1 isoform 3 (UniProt O15117)
inactive: [1] 0.011 | [2] 0.039 | [3] 0.095 | [4] 0.008 | [5] 0.051

GEMIN6 (UniProt Q8WXD5)
inactive: [1] 0.001 | [2] -0.009 | [3] 0.041 | [4] 0.022 | [5] -0.021

GCAT isoform 2 (UniProt O75600)
inactive: [1] 0.073 | [2] 0.017 | [3] -0.009 | [4] -0.028 | [5] -0.023

FRRS1 (UniProt Q6ZNA5)
inactive: [1] 0.063 | [2] -0.075 | [3] -0.059 | [4] -0.066 | [5] -0.2

GBA (UniProt P04062)
inactive: [1] 0.015 | [2] 0.018 | [3] 0.051 | [4] 0.042 | [5] -0.033

GAGE1 (UniProt Q13065)
inactive: [1] -0.073 | [2] -0.014

3 successive records from above, for reference:
GCLC (UniProt P48506)
inactive: [1] 0.059 | [2] 0.006 | [3] 0.04 | [4] -0.037 | [5] -0.006

FURIN (UniProt P09958)
inactive: [1] 0.017 | [2] 0.017 | [3] 0.046 | [4] 0.017 | [5] 0.035

GANAB isoform 2 (UniProt Q14697)
inactive: [1] 0.008 | [2] 0 | [3] 0.01 | [4] 0.008 | [5] 0.018

(cont.)

FOXP1 (UniProt Q9H334)
inactive: [1] 0.045 | [2] 0.14 | [3] 0.212 | [4] 0.003 | [5] 0.034

FUS (UniProt P35637)
inactive: [1] -0.002 | [2] -0.012 | [3] -0.038 | [4] 0.091 | [5] -0.029

FUBP1 isoform 2 (UniProt Q96AE4)
inactive: [1] 0.035 | [2] 0.019 | [3] -0.02 | [4] -0.009 | [5] -0.02

FUBP3 (UniProt Q96I24)
inactive: [1] -0.052 | [2] 0.019 | [3] -0.007 | [4] -0.01 | [5] 0.011

FXN (UniProt Q16595)
inactive: [1] 0 | [2] -0.096 | [3] -0.036 | [4] 0.012 | [5] 0.026

FRMD8 (UniProt Q9BZ67)
inactive: [1] 0.11 | [2] -0.124 | [3] 0.016 | [4] 0.198 | [5] -0.042

GDI1 (UniProt P31150)
inactive: [1] -0.011 | [2] 0.004 | [3] -0.001 | [4] 0.025 | [5] 0.023

FTSJ1 (UniProt Q9UET6)
inactive: [1] 0.016 | [2] 0.013 | [3] -0.025 | [4] -0.005 | [5] 0.048

FYN (UniProt P06241)
inactive: [1] -0.323 | [2] -0.231 | [3] -0.052 | [4] 0.019 | [5] -0.112

FUNDC2 (UniProt H7C0K8)
inactive: [1] -0.454 | [2] -0.094 | [3] -0.045

FUT8 (UniProt Q9BYC5)
inactive: [1] 0.035 | [2] 0.017

FSCN1 (UniProt Q16658)
inactive: [1] 0.024 | [2] -0.017 | [3] -0.01 | [4] 0.003 | [5] 0.04

GAPDH (UniProt P04406)
inactive: [1] 0.004 | [2] 0.008 | [3] -0.018 | [4] 0.008 | [5] 0.052

GAGE12F (UniProt P0CL80)
inactive: [1] -0.083 | [2] -0.027 | [3] -0.021 | [4] -0.048 | [5] 0.116

FUBP1 (UniProt Q96AE4)
inactive: [1] 0.069 | [2] 0.143 | [3] 0.028 | [4] 0.049 | [5] 0.003

GALNT2 (UniProt Q10471)
inactive: [1] 0.018 | [2] -0.009 | [3] 0.021 | [4] 0.004 | [5] -0.021

GAPVD1 (UniProt Q14C86)
inactive: [1] 0.036 | [2] -0.067

GEMIN4 (UniProt P57678)
inactive: [1] -0.036 | [2] -0.015 | [3] -0.014 | [4] 0.04 | [5] 0.041

FOXK1 (UniProt P85037)
inactive: [1] 0.022 | [2] 0.017 | [3] -0.001 | [4] 0.032 | [5] -0.009

GET4 (UniProt Q7L5D6)
inactive: [1] -0.015 | [2] -0.045 | [3] 0.036 | [4] -0.008 | [5] 0.032

GCC1 (UniProt Q96CN9)
inactive: [1] -0.047 | [2] -0.011 | [3] 0.093 | [4] -0.046 | [5] 0.021

GAR1 (UniProt Q9NY12)
inactive: [1] 0.017 | [2] -0.041 | [3] 0.012 | [4] -0.01 | [5] 0.078

GCN1 (UniProt Q92616)
inactive: [1] -0.046 | [2] 0.003 | [3] 0.019 | [4] 0.035 | [5] 0.063

GALM (UniProt Q96C23)
inactive: [1] 0.077 | [2] -0.037 | [3] 0.077 | [4] -0.024 | [5] -0.028

GABPA (UniProt Q06546)
inactive: [1] 0.005 | [2] 0.035 | [3] 0.017 | [4] 0.031 | [5] -0.085

G6PD isoform 2 (UniProt P11413)
inactive: [1] 0.023 | [2] -0.002 | [3] 0.011 | [4] 0.053 | [5] 0.075

GDPD1 (UniProt Q8N9F7)
inactive: [1] -0.047 | [2] 0.018 | [3] 0.117 | [4] 0.024 | [5] -0.036

GAGE5 (UniProt Q13069)
inactive: [1] -0.08 | [2] -0.137 | [3] -0.026 | [4] -0.031 | [5] 0

GAK (UniProt O14976)
inactive: [1] -0.208 | [2] -0.123 | [3] -0.16 | [4] -0.092 | [5] -0.188

FOXO3 (UniProt O43524)
inactive: [1] 0.011 | [2] 0.029 | [3] 0.029 | [4] -0.108 | [5] -0.117

FTL (UniProt P02792)
inactive: [1] -0.067 | [2] 0.127 | [3] -0.034 | [4] -0.03 | [5] -0.031

GBE1 (UniProt Q04446)
inactive: [1] -0.043 | [2] -0.007 | [3] 0.058 | [4] 0.009 | [5] 0.027

GADD45GIP1 (UniProt Q8TAE8)
inactive: [1] 0.081 | [2] -0.015 | [3] 0.016 | [4] 0.033 | [5] 0.051

FOXJ3 (UniProt Q9UPW0)
inactive: [1] 0.004 | [2] -0.072 | [3] 0.013 | [4] -0.021 | [5] -0.026
